Assay results: PubChem BioAssay AID2685 (National Center for Advancing Translational Sciences (NCATS), 2010)
The list shows a part of the results. Further columns of the screen follow, without active or inactive calls. Compounds called inactive in the main read-out are mostly missing here. Potencies come from curve fits of mixed quality, noted in brackets.

Test: qHTS Assay for Lipid Storage Modulators in Drosophila S3 Cells;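 on cell number change: cells counted by Cell Tracker Red CMTPX staining in the red channel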
Conditions: BODIPY lipid droplet fluorescence, 18-24 h; for cell number change: measured here: cell count max response, cells fed with added oleic acid
Method in brief: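 Drosophila S3 cells loaded with oleic acid (400 uM, as added) and compounds at several concentrations; lipid droplets imaged by 488-nm laser-scanning cytometry, 500–530 nm intensity and object ratio to cell channel. Percent activity normalized to 20 uM Triacsin C.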

[1] = measured here: lipid fluorescence (Fed channel) AC50, cells fed with added oleic acid
[2] = measured here: cell number channel AC50, cells fed with added oleic acid

In the case of `O=C1CC(c2ccco2)CC(O)=C1C=Nc1ccc(Br)cc1` (configuration not stated), the cell number change is reported as -0.764% and the AC50 [1] is reported as 0.461 µM [falling, partial curve, poor fit].
For `COC(=O)Cn1c(-c2ccc(OC)cc2)c(-c2ccc(OC)cc2)nnc1=O`, the cell number change was -17.9% and the AC50 [1] was 2.59 µM [falling, full curve].
With `CCC(C)N1CCC2(CC1)N=c1c(c3c4c5c(C)c(O)c3c(O)c1=NC(=O)C(C)=CC=C[C@H](C)[C@H](O)[C@@H](C)[C@@H](O)[C@@H](C)[C@H](OC(C)=O)[C@H](C)[C@@H](OC)C=CO[C@@](C)(O5)C4=O)N2` (some centres not stated) the cell number change was -33.4%, the AC50 [2] was 1.3 µM [falling, full curve] and the AC50 [1] was 1.03 µM [falling, full curve, poor fit].
In the case of `O=C(NCc1cccc(C(F)(F)F)c1)C1CC(c2ccccc2C(F)(F)F)=NO1` (configuration not stated), the cell number change is reported as 1.96% and the AC50 [1] is reported as 2.06 µM [rising, single point].
For `CCc1noc(C)c1C(=O)Nc1nc2c(C)cccc2s1`, the cell number change was 96.5% and the AC50 [2] was 11.6 µM [rising, partial curve].
With `CCOC(=O)CSCc1cn2cc(Cl)ccc2n1` the cell number change was -17.5% and the AC50 [1] was 20.6 µM [falling, partial curve].
In the case of `Cc1ccc(NS(=O)(=O)c2ccc(N3C(=O)CCC3=O)cc2)cc1`, the cell number change is reported as -1.05% and the AC50 [1] is reported as 0.116 µM [falling, full curve, poor fit].
In the case of `Cc1ccc(NC(=O)C/C(N)=N/O)cc1C`, the cell number change is reported as 167%, the AC50 [2] is reported as 23.1 µM [rising, single point] and the AC50 [1] is reported as 29.1 µM [rising, partial curve].
With `O=C1CN(C(=O)c2cccc(F)c2)C(c2ccc(F)cc2)c2cc(F)ccc2N1` (configuration not stated) the cell number change was 14.4%.
For `COc1ccc(CCNC(=O)CS(=O)(=O)Cc2nc(-c3ccccc3Cl)oc2C)cc1OC`, the cell number change was 4.9% and the AC50 [1] was 0.092 µM [rising, full curve, poor fit].
In the case of `COc1cccc(CN2CC(C(=O)NCCSc3nnnn3C)CCC2=O)c1` (configuration not stated), the cell number change is reported as 16.8% and the AC50 [1] is reported as 14.6 µM [falling, single point].
With `CC1CCCCN1S(=O)(=O)c1cccc2cccnc12` (configuration not stated) the AC50 [1] was 29.1 µM [rising, single point].
For `CCCn1cc(S(=O)(=O)c2ccccc2)c(=O)c2cc(OC)c(OC)cc21`, the cell number change was -2.31%, the AC50 [2] was 2.91 µM [falling, partial curve] and the AC50 [1] was 0.116 µM [rising, full curve, poor fit].
With `CN(CC(=O)Nc1ccc(F)cc1)CC(=O)Nc1ccc(F)c(F)c1F` the cell number change was -3.65% and the AC50 [1] was 0.00517 µM [falling, full curve, poor fit].
For `COc1ccc(C(=O)OCC(=O)c2ccc(Br)s2)c(OC)c1`, the cell number change was 32.9%, the AC50 [2] was 4.11 µM [rising, partial curve, poor fit] and the AC50 [1] was 2.91 µM [rising, full curve].
